Earlier results, collected in US20240239766A1, “3-AMINO PIPERIDYL SODIUM CHANNEL INHIBITORS” (Genentech, Inc., priority 2021, published 2024).

Details: administered topically (Lidoderm patch); cited from earlier work

CCN(CC)CC(=O)Nc1c(C)cccc1C [lidocaine]
plasma concentrations: about 1 μM
